Assay results published in PubChem BioAssay AID1671190 (National Center for Advancing Translational Sciences (NCATS), 2021).
Among all 580,000 compounds or so, about 6,100 (1.1%) were called active. About 15% were inconclusive and are not listed. Calls follow the shape of the dose curve; as a rule, active = well fitted inhibition curve with a large enough effect; inconclusive = small, poorly fitted or top-dose-only effect, or another doubt; inactive = no such curve, though single readings can be large or run the other way. The list shows a part of the results, in another mix than the full data. Where no call is shown, the source filed none. Where a structure was tested more than once in an assay, its records may differ in their call.

Chains of the proteins cited; added tags and fusions are not shown.
UniProt P18054, whole entry, looked up: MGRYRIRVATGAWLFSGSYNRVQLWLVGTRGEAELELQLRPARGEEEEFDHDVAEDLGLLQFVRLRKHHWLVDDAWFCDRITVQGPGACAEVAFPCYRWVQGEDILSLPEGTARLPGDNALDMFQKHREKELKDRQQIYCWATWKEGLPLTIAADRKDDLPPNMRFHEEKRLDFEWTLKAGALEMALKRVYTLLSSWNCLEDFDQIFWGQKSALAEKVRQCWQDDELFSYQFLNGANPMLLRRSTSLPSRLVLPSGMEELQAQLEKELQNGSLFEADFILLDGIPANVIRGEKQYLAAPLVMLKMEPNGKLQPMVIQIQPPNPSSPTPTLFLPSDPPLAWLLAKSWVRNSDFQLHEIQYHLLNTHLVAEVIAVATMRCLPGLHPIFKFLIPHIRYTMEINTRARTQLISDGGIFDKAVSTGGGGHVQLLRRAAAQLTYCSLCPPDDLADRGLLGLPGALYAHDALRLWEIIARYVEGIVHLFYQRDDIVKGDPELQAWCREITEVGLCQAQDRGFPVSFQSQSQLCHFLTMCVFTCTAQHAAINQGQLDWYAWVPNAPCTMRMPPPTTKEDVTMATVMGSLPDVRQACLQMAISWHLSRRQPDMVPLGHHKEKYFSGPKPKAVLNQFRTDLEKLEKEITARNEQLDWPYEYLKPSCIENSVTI

What follows are molecules tested against Polyunsaturated fatty acid lipoxygenase ALOX12 (Homo sapiens) (UniProt P18054) (assay: Primary qHTS assay for inhibitors of human arachidonate 12S-lipoxygenase (ALOX12): Round 2). Settings: purified 12hLO, xylenol orange hydroperoxide absorbance; activity change, negative = inhibition: at 0.00344 µM (top of the series) unless noted.
Method in brief: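 Hydroperoxide product was detected by ferrous iron/xylenol orange as the 573 to 405 nm absorbance ratio. Arachidonic acid at 40 uM (final) was turned over for 30 min at room temperature by 150 nM human 12hLO, pH 7.0 Hepes buffer, after 15 min compound preincubation.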
% is scaled to controls: 0 for no effect and ±100 for the full control effect; potency is read from the fitted curve at half-maximal effect.

SMILES | Potency | activity change, negative = inhibition
COc1ccc(/C=C/C(=O)c2cc3c(cc2N)OCO3)cc1 | active: 35.5 µM | 
Cc1cccn2c(=O)c(-c3nnn[nH]3)cnc12 |  | -18% [at 0.00147 µM]
O=C1N=c2ccc(Br)cc2=C1c1sc(=S)n(NS(=O)(=O)c2ccccc2)c1O | active: 35.5 µM | 
CC1(C)OC(=O)Nc2ccc(Br)cc21 |  | -1.05%
CC(C)NS(=O)(=O)c1ccc(C(=O)NCc2ccc(-c3nc4ccccc4s3)o2)cc1 | active: 25.1 µM | 
CC(=O)OC[C@H]1O[C@@H](OC(C)=O)[C@H](OC(C)=O)[C@@H]1OC(C)=O |  | 4.42%
O=C1C(O)=C(O)C(=O)C(O)=C1O |  | 20.3%
Cc1ccc(-c2csc(/C=C/c3cccc(O)c3)n2)cc1 | active: 7.08 µM | 
COC(=O)CCCn1cc(CN2CC(N3CCN(Cc4cccc(C)c4)CC3)CS2(=O)=O)nn1 (centres undefined) | active: 7.08 µM | 
N#CC1(c2ccc(F)cc2)CCC(=O)CC1 |  | 1.08%
CC[N+](CC)(CCNC(=O)C(=O)NCC[N+](CC)(CC)Cc1ccccc1Cl)Cc1ccccc1Cl |  | -17.5%
CCN(CC)S(=O)(=O)c1cccc(-c2n[nH]c(=S)n2CC(C)C)c1 | active: 31.6 µM | 
CC1=CC(=O)c2ccccc2C1=O |  | -7.59%
CCCCOC(=O)c1ccc(O)cc1 |  | -0.81%
O=C1ON=C(c2cccc([N+](=O)[O-])c2)/C1=C/c1ccc(O)cc1 | active: 7.94 µM | 
CNCCCCOc1ccccc1Cc1ccccc1 |  | 20.7%
CCN(CC)CCCN(c1ccccc1)C1Cc2ccccc2C1 |  | 29.8%
CC(=O)c1ccc(OCc2coc(-c3cccc(F)c3)n2)cc1 | active: 44.7 µM | 
O=C(CCCCC(=O)Nc1c(I)cc(I)c(C(=O)O)c1I)Nc1c(I)cc(I)c(C(=O)O)c1I |  | -3.82%
COc1ccccc1N1CCN(CC(O)COc2cc(OC)c(OC)c(OC)c2)CC1 (centres undefined) |  | -17.7%
Cc1c(F)c(N2CCNC(C)C2)cc2c1c(=O)c(C(=O)O)cn2C1CC1 (centres undefined) |  | -11.8%
CCN1CCCC1=O |  | -15.3%
Cc1cc(OI)c(C(C)C)cc1-c1cc(C(C)C)c(OI)cc1C |  | -24.8%

SMILES | Potency | activity change, negative = inhibition
C[C@@H]1O[C@@H](OC[C@H]2O[C@@H](Oc3c(-c4ccc(O)c(O)c4)oc4cc(O)cc(O)c4c3=O)[C@H](O)[C@@H](O)[C@@H]2O)[C@H](O)[C@H](O)[C@H]1O |  | -12.3%
Cc1c(/C=C(/C#N)c2ccccn2)cc(C#N)n1C | active: 35.5 µM | 
Cc1ccc(/C=N/n2c(-c3ccccc3)csc2=S)cc1 |  | 34.1%
Cc1cc(C)c2oc(-c3ccc(C)c(NC(=O)/C=C/c4ccco4)c3)nc2c1 | active: 50.1 µM | 
O=C(OCc1ccccc1)c1ccc(O)cc1 |  | -17.6%
C/C=C(/C(=C/C)c1ccc(OC(C)=O)cc1)c1ccc(OC(C)=O)cc1 |  | -22.5%
CCOC(=O)c1oc2ccccc2c1CN1CCN(C)CC1 | active: 35.5 µM | 
CC(=O)CCC(=O)O |  | 13.1%
CC(Cc1ccccc1)(NC(=O)CN)c1ccccc1 (centres undefined) |  | -6.74%
Cc1cc(N)c2cc(NC(=O)Nc3ccc4nc(C)cc(N)c4c3)ccc2n1 |  | -5.34%
CN(C)/N=N/c1nc[nH]c1C(N)=O |  | 43%
CCCCOC(=O)c1ccc(N)cc1 |  | 10%
O=c1[nH]c(=O)c2[nH]c(=S)[nH]c2[nH]1 | active: 0.708 µM | 
NC(=O)Cc1cccc(C(=O)c2ccccc2)c1N |  | -12.5%
O=C(CCCl)NCc1ccccc1 |  | -0.938%
COc1ccc([C@@H]2Sc3ccccc3NC(=O)[C@@H]2O)cc1 |  | -35%
COC(=O)[C@H]1[C@H]2C[C@@H]3c4[nH]c5cc(OC)ccc5c4CCN3C[C@H]2C[C@@H](OC(=O)COc2ccc(OC)cc2)[C@@H]1OC |  | -32.2%
CC(C)COCC(CN(Cc1ccccc1)c1ccccc1)N1CCCC1 (centres undefined) |  | 22.7%
CCC(CC)(CC(=O)Nc1cccc(/C=C/c2nc(C3CCC3)cs2)c1)C(=O)O |  | -25.3%
CCOC(=O)[C@H](CCc1ccccc1)N[C@@H](C)C(=O)N1[C@H](C(=O)O)C[C@@H]2CCC[C@@H]21 |  | 17.4%
NS(=O)(=O)c1cc(C(=O)O)c(NCc2ccco2)cc1Cl |  | -28.2%
Oc1ccc(Cl)cc1Cc1cc(Cl)ccc1O |  | 10%
Cc1ccc(N2N=C(c3ccc(F)cc3)CC2c2ccco2)cc1 (centres undefined) | active: 25.1 µM | 

SMILES | Potency | activity change, negative = inhibition
Cc1cc(C2CCCCC2)n(O)c(=O)c1 |  | 54.7%
CC1=C(C(=O)OC(C)C)C(c2cccc([N+](=O)[O-])c2)C(C(=O)OC2CN(C(c3ccccc3)c3ccccc3)C2)=C(N)N1 (centres undefined) |  | 0.098%
COc1ccc2[nH]cc(CCNc3ccnc(-c4cccc(NS(C)(=O)=O)c4)n3)c2c1 | active: 39.8 µM | 
COc1ccc2cc(C=O)ccc2c1 |  | -18.2%
C/C=C/C(=O)N(CC)c1ccccc1C |  | 24.4%
COc1cccc(F)c1-c1ccc(COc2ccc3c(cnn3CCC(=O)O)c2)cc1 | active: 22.4 µM | 
Cc1ccc(SCCNC(=S)Nc2ccc(F)cc2)cc1 | active: 50.1 µM | 
C#C[C@]1(O)CC[C@H]2[C@@H]3CCc4cc(OC5CCCC5)ccc4[C@H]3CC[C@@]21C |  | -18.8%
Cn1c(=O)c2[nH]cnc2n(C)c1=O |  | 17.6%
Cc1ccc(O)c2ncccc12 |  | 15.8%
CCCCCCn1c(=O)c2c(ncn2C)n(C)c1=O |  | -32.7%
O=c1cc(-c2ccccc2)n(S(=O)(=O)c2ccccc2)o1 | active: 10 µM | 
CCOC(=O)c1ccc(NC(=O)c2c(NCc3sccc3C)sc3c2CCCCC3)cc1 | active: 11.2 µM | 
COc1cc(Cc2cnc(N)nc2N)cc(OC)c1OC |  | 9.48%
CO[C@@]1(NC(=O)Cc2cccs2)C(=O)N2C(C(=O)O)=C(COC(N)=O)CS[C@@H]21 |  | 54.3%
CNCC[C@H](Oc1cccc2ccccc12)c1cccs1 |  | 32.1%
N#C/C(=C1\SCC(c2ccccc2Cl)S1)n1ccnc1 (centres undefined) |  | 27.5%
C[N+]1(C)CCCC(OC(=O)C(O)(c2ccccc2)c2ccccc2)C1 (centres undefined) |  | -24.9%
O=C(CSc1n[nH]c(-c2ccccc2)n1)c1ccc(O)c(O)c1 | active: 2.51 µM | 
C=CC(=O)c1ccc2ccccc2c1 | active: 17.8 µM | 
CCCCN(CCCC)C(C(N)=O)c1ccc(OC)cc1 (centres undefined) |  | -16.2%
Cc1cccc(NCc2ccc(O)c3ncccc23)c1C | active: 5.62 µM | 
O=C1C=CC(=O)C(C2=C3C(=O)N(CCc4ccccc4)CC(=O)N3CCC2)=C1 | active: 39.8 µM | 

A second format for some results above:
SMILES,Potency,"activity change, negative = inhibition"
CCCCCCn1c(=O)c2c(ncn2C)n(C)c1=O,,-32.7%
O=c1cc(-c2ccccc2)n(S(=O)(=O)c2ccccc2)o1,active: 10 µM,
CCOC(=O)c1ccc(NC(=O)c2c(NCc3sccc3C)sc3c2CCCCC3)cc1,active: 11.2 µM,
COc1cc(Cc2cnc(N)nc2N)cc(OC)c1OC,,9.48%
CO[C@@]1(NC(=O)Cc2cccs2)C(=O)N2C(C(=O)O)=C(COC(N)=O)CS[C@@H]21,,54.3%
